# PubChem BioAssay AID624297 (National Center for Advancing Translational Sciences (NCATS), 2012)
# Among all 340,000 compounds or so, about 6,200 (1.8%) were called active. This list was built around the results that the source calls inconclusive (neither active nor inactive); the mix of calls is not that of the screen. The call rests on the fitted dose curve; in most records, active means well fitted activation curve with a large enough effect; inconclusive means small, poorly fitted or top-dose-only effect; inactive means no such curve, though single readings can be large or run the other way. A potency beside an inconclusive call is a rough fit, not a confirmed value.
# Test: A quantitative high throughput screen for small molecules that induce DNA re-replication in SW480 colon adenocarcinoma cells. Further: nearly all actives have a fitted effect of over 55% in size. On re-replication activation: % of control where 0% means no effect.
# Conditions: Hoechst DNA content imaging, 48 h; re-replication activation: at 46.1 µM (top of the series) unless noted
# How it was run: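 Readout is total intensity of Hoechst-stained nuclei, excited at 405 nm and collected at 500-530 nm. Compound treatment lasted 48 hr at 37 C in 5% CO2 before staining.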
# Potency means the concentration at half of the fitted maximal effect.
Structure (SMILES),Potency,re-replication activation
CN=c1c([N+](=O)[O-])nn(-c2ccc3c(c2)OCCO3)n1O,active: 16.4 µM,–
CC(C)CNC(=O)C1CCN(Cc2ccc(OCc3ccccc3)cc2)CC1,"inconclusive: 29.1 µM [activator, single point]",–
COc1ccc(-n2nc(C(=O)NCC(=O)NCc3ccc(F)cc3)c3ccccc3c2=O)cc1,–,inactive: -0.653%
O=C(/C=C/c1cccs1)N1CCN(c2ccc(O)cc2)CC1,"inconclusive: 20.6 µM [activator, single point]",–
COc1ccc2[nH]c3c(c2c1)[C@@H]1CCN2C(=O)CCC[C@H](C3)[C@H]12,–,inactive: 1.19%
O=S(Cc1ccccc1)CC(O)(c1ccc(Cl)cc1)c1ccc(Cl)cc1 (configuration not stated),"inconclusive: 25.9 µM [activator, partial curve, poor fit]",–
CC(=O)Nc1ccc(NS(=O)(=O)c2ccc(CN3C(=O)c4cccnc4C3=O)cc2)cc1,–,inactive: -8.42%
Cc1ccnc(Nc2nc3ccccc3s2)n1,"inconclusive: 29.1 µM [activator, single point]",–
CC(=O)Cc1nsc(NC(=O)c2ccc(-c3cc(Cl)ccc3Cl)o2)n1,"inconclusive: 29.1 µM [activator, single point]",–
NCCCC[C@H]1CNC(=O)C(=O)N1CCc1cccc2ccccc12,–,inactive: -3.96%
COc1ccc(-c2nc(-c3cccnc3)no2)cc1,"inconclusive: 2.91 µM [activator, single point]",–
COC(=O)c1c(-c2ccc(F)cc2)csc1NC(=O)C1CCCO1 (configuration not stated),"inconclusive: 29.1 µM [activator, single point]",–
CC(/C=C/c1ccc2c(c1)OCO2)=N/NC(=O)c1ccc(C)nc1,"inconclusive: 20.6 µM [activator, single point]",–
O=C1/C(=C\c2ccc(O)c(O)c2)N=C2CCCCCN12,"inconclusive: 16.4 µM [activator, single point]",–
COCCn1c(SCC(=O)c2c(N)n(C3CC3)c(=O)[nH]c2=O)nnc1-c1ccc(Cl)cc1,–,inactive: -6.03%
CC(C)c1ccc(NC(=O)CCNS(=O)(=O)c2cc(Br)cnc2N)cc1,"inconclusive: 29.1 µM [activator, single point]",–
O=C1CCc2cc(S(=O)(=O)NC(Cc3ccccc3)C(=O)NCCC3=CCCCC3)ccc2N1 (configuration not stated),"inconclusive: 6.51 µM [activator, partial curve, poor fit]",–
O=C(N1CCCC1)C12CC3CC(CC(Cl)(C3)C1)C2,–,inactive: -2.26%
Fc1ccc(-c2csc(-c3ccncc3)n2)cc1,–,inactive: -2.08%
O=C(N/N=C/c1ccc(O)c(Br)c1)c1cc2c(ccc3ccccc32)o1,"inconclusive: 20.6 µM [activator, partial curve, poor fit]",–
COCCN(Cc1cc2cc3c(cc2nc1Cl)OCO3)C(=O)Nc1ccc(OC)cc1,–,inactive: -1.4%
O=C(C1=C[C@@H](c2ccc(Br)cc2)C[C@@H](OCc2ccc(CO)cc2)O1)N1CCN(Cc2ccc3c(c2)OCO3)CC1,"inconclusive: 23.1 µM [activator, partial curve, poor fit]",–
Oc1ccccc1/C=N/Nc1nccnc1Cl,"inconclusive: 0.651 µM [activator, full curve]",–

# Shown as tab-separated lines: part of the list above
Structure (SMILES)	Potency	re-replication activation
NCCCC[C@H]1CNC(=O)C(=O)N1CCc1cccc2ccccc12	–	inactive: -3.96%
COc1ccc(-c2nc(-c3cccnc3)no2)cc1	inconclusive: 2.91 µM [activator, single point]	–
COC(=O)c1c(-c2ccc(F)cc2)csc1NC(=O)C1CCCO1 (configuration not stated)	inconclusive: 29.1 µM [activator, single point]	–
CC(/C=C/c1ccc2c(c1)OCO2)=N/NC(=O)c1ccc(C)nc1	inconclusive: 20.6 µM [activator, single point]	–

# Going on with the list:

Structure (SMILES),Potency,re-replication activation
O=C1N(c2ccccc2C(F)(F)F)O[C@]1(c1ccccc1)C1CCCC1,"inconclusive: 29.1 µM [activator, single point]",–
CCN(CC)c1ccc(C(=O)N/N=C/c2ccccc2OC(F)F)cc1,"inconclusive: 29.1 µM [activator, single point]",–
Cc1nn(-c2ccccc2)c(C)c1C(=O)Nc1nnc(-c2ccco2)o1,"inconclusive: 20.6 µM [activator, partial curve, poor fit]",–
O=C(COC(=O)CCS(=O)(=O)c1ccc(Cl)cc1)NCCc1ccccc1,–,inactive: -12.8%
CC(CCNC(=O)c1ccccc1)(CCNC(=O)c1ccccc1)[N+](=O)[O-],–,inactive: 0.91%
COc1ccc(CNC(=O)CC2C[C@H](C(=O)N3CCOCC3)[C@@]3(CCC4CCCC4)c4[nH]c5ccccc5c4CCN3C2=O)cc1OC (some centres not stated),"inconclusive: 23.1 µM [activator, single point]",–
COC(=O)c1ccc(CCc2cc(O)ccc2O)cc1,"inconclusive: 25.9 µM [activator, single point]",–
Cc1ccc(NC(=O)CSCC(=O)Nc2ccccc2C(=O)N2CCCCC2)cc1,"inconclusive: 18.4 µM [activator, single point]",–
COc1ccc(/C=N/NC(=O)CCc2ccccc2)cc1O,"inconclusive: 20.6 µM [activator, single point]",–
CCN(CC)S(=O)(=O)c1ccc(NC(=O)COC(=O)c2cc(S(=O)(=O)Nc3ccc(OC)cc3)ccc2O)cc1,"inconclusive: 5.8 µM [activator, partial curve, poor fit]",–
Cc1ccc(O)c(C=Nc2ccc3[nH]ncc3c2)c1,–,inactive: -8.34%
Cc1cccn2c(=O)nc(SCC(=O)N3CCCC3)nc12,"inconclusive: 29.1 µM [activator, partial curve, poor fit]",–
CN(c1ccccc1C(=O)Nc1ccc(CC#N)cc1)S(=O)(=O)c1ccccc1,–,inactive: -0.164% [at 9.22 µM]
CC(=O)c1ccc(OCc2cc(C(=O)N3CCN(c4ccccc4)CC3C)no2)cc1 (configuration not stated),"inconclusive: 29.1 µM [activator, single point]",–
Cc1c(C)n(CCCN(C)C)c2ncnc(Nc3ccccc3)c12,–,inactive: -20.6%
CCOc1ccsc1C(=O)O,"inconclusive: 2.59 µM [activator, partial curve, poor fit]",–
COc1cc(C2c3[nH]c4ccccc4c3CC3COC(=O)N32)cc(OC)c1O (configuration not stated),"inconclusive: 0.517 µM [activator, full curve, poor fit]",–
O=C(O)Cc1sc(Nc2cccc3ccccc23)nc1-c1ccc(Cl)cc1,–,inactive: 5.49%
CCOC(=O)c1sc2nccc(N(C)C)c2c1N=CNOCc1c(F)cccc1Cl,"inconclusive: 20.6 µM [activator, single point]",–
O=C(Nc1ccc(NC(=O)c2sc3ccccc3c2Cl)cc1)c1ccco1,"inconclusive: 11.6 µM [activator, partial curve]",–
O=C(CCc1nc2ccccc2c(=O)[nH]1)NC1CCN(Cc2ccccc2)CC1,–,inactive: -9.08%
CN(C(=O)c1cc2c(s1)-c1ccccc1S(=O)(=O)C2)c1ccccc1,"inconclusive: 0.58 µM [activator, partial curve, poor fit]",–
Cc1cccc(-c2nc(CN3CCCC(C(=O)NC4CCCC4)C3)c(C)o2)c1 (configuration not stated),"inconclusive: 14.6 µM [activator, partial curve, poor fit]",–

Structure (SMILES),Potency,re-replication activation
Clc1cc(Cl)c(OCC#CI)cc1Cl,"inconclusive: 11.9 µM [activator, partial curve]",–
COc1ccc(N(C(C)C(=O)N/N=C/c2ccc(OC(C)C)cc2)S(C)(=O)=O)cc1 (configuration not stated),"inconclusive: 29.1 µM [activator, partial curve, poor fit]",–
N#Cc1ccc(-c2ccco2)nc1SCc1ccccc1,"inconclusive: 29.1 µM [activator, single point]",–
COc1ccc2nc3cc(Cl)ccc3c(Nc3ccc(O)c(CN4CCN(C)CC4)c3)c2c1,"inconclusive: 25.9 µM [activator, single point]",–
Cc1cc(C(=O)N/N=C/c2c(C)nn(-c3ccccc3)c2C)c(C)o1,–,inactive: -17%
CCN1C[C@@H]2[C@@H]3C(=O)N(Cc4ccccc4)C(=O)[C@@H]3[C@](C)(C1=O)N2C(=O)c1ccc(F)cc1,"inconclusive: 18.4 µM [activator, single point]",–
Cc1cccc(C(=O)Nc2ccc(Oc3cnccn3)cc2)c1,"inconclusive: 3.66 µM [activator, full curve, poor fit]",–
O=Cc1c[nH]c2ccc(NC(=O)OCc3ccccc3)cc12,–,inactive: 13%
COc1ccc(N=C2C(=O)N3c4c(cccc42)C(C)=CC3(C)C)cc1,active: 20.6 µM,–
COc1ccc(N(CC(=O)NCc2ccco2)C(=O)CCC(=O)Nc2nccs2)c(OC)c1,–,inactive: -12.3%
COCCCN1C(=O)C(=O)/C(=C(/O)c2ccc(OC(C)C)cc2)C1c1ccncc1 (configuration not stated),"inconclusive: 23.1 µM [activator, single point]",–
O=C(NC(=S)Nc1nc(-c2cccc([N+](=O)[O-])c2)cs1)c1ccccc1Cl,"inconclusive: 29.1 µM [activator, single point]",–
CCn1c(=O)c(=O)n(CC)c2cc(S(=O)(=O)N3CCc4ccccc43)ccc21,"inconclusive: 20.6 µM [activator, single point]",–
Cc1ccccc1C(=O)Oc1ccccc1N1C(=O)C2CC=CCC2C1=O (configuration not stated),–,inactive: -11.4%
Cc1ccc(NC(=O)C2CCN(S(=O)(=O)c3ccc4c(c3)CC(C)N4C(=O)C3CCC3)CC2)nc1 (configuration not stated),–,inactive: 6.81%
CCn1cc(/C=N\NC(=O)c2c[nH]c3ccccc23)c(C)n1,"inconclusive: 32.6 µM [activator, partial curve, poor fit]",–
Cc1ccccc1-c1nc(CN2CCC(C(=O)NCCCN3CC(C)CC(C)C3)CC2)c(C)o1 (configuration not stated),"inconclusive: 18.4 µM [activator, single point]",–
O=[N+]([O-])c1cc(-c2nc(-c3ccncc3)no2)cc([N+](=O)[O-])c1,"inconclusive: 13 µM [activator, partial curve]",–
CN(C)C1(CNC(=O)Nc2ccccc2)CCCCC1,–,inactive: -10.6%
Cc1cc(C)c2c(NC(=O)CCl)nn(C)c2n1,"inconclusive: 29.1 µM [activator, single point]",–
CSc1nc(=S)n(-c2ccccc2)c(C)c1C(C)=O,"inconclusive: 23.1 µM [activator, single point]",–
